Experimental data reported in PubChem BioAssay AID504444 (National Center for Advancing Translational Sciences (NCATS), 2011).
Hit rate of the full screen: of about 360,000 compounds, about 7,500 (2.1%) were called active. This list was built around the results that the source calls inconclusive (neither active nor inactive); the mix of calls is not that of the screen. Calls come from the whole dose curve; as a rule, active = well fitted inhibition curve with a large enough effect; inconclusive = small, poorly fitted or top-dose-only effect, or effect the other way; inactive = flat fitted curve, though single readings scatter. Potencies of inconclusive entries are doubtful fits and often do not repeat.

Assay: Nrf2 qHTS screen for inhibitors; note: nearly all actives have a fitted effect of over 60% in size
Conditions: A549 ARE-Fluc reporter, luciferase luminescence, 18-24 h; series mostly up to 46 µM
In short: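 A549 ARE_Fluc cells (5000/well, 5% FBS OPTI-MEM) pre-incubated 2 h, then treated with compounds 18-24 h at 37C/5% CO2 in concentration-response. CellTiter-Fluor viability read first; BugLite luciferase luminescence after 15 min at room temperature gives Nrf2 activity.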
Potency is the fitted concentration of half-maximal effect.

Row | Compound | Potency
1 | CCOC(=O)Cc1csc(NC(=O)c2c(O)c3ccccc3n(CC(C)C)c2=O)n1 | inconclusive: 3.66 µM [falling, partial curve, poor fit]
2 | O=C(N/N=C/C(Cl)=C/c1ccccc1)c1ccccc1F | inconclusive: 23.1 µM [activator, single point]
3 | Cc1oc2ncn(CC(C)C)c(=O)c2c1C(=O)NCc1cccc(Cl)c1 | inactive
4 | Cc1ccc2c(c1)C(=O)OC(C(=O)Nc1ccc(C(=O)O)cc1)C2 (stereo unspecified) | inactive
5 | COCC(=O)NNC(=O)Cc1ccc(Cl)cc1 | inconclusive: 0.326 µM [falling, full curve, poor fit]
6 | O=C(COC(=O)c1cc(S(=O)(=O)N2CCCCC2)ccc1N1CCOCC1)c1ccccc1 | inconclusive: 25.9 µM [falling, single point]
7 | O=C(CNC(=O)c1ccccc1)OCC(=O)c1ccccc1 | inactive
8 | c1ccc(-c2cc(-c3ccccc3)n3ncnc3n2)cc1 | inconclusive: 23.1 µM [activator, partial curve, poor fit]
9 | CCOC(=O)c1cc(-c2ccccc2)sc1NC(=O)C(C)(C)C | inconclusive: 2.31 µM [falling, partial curve, poor fit]
10 | COc1ccc2cc(CN(Cc3cccnc3)S(=O)(=O)c3ccccc3)c(=O)[nH]c2c1 | inactive
11 | COc1ccc(C(=O)CN2CCN(S(=O)(=O)c3ccc(F)cc3)CC2)cc1 | inconclusive: 32.6 µM [activator, single point]
12 | C[C@@H]1[C@H]2[C@@H](O[C@@H]3O[C@H](CO)[C@@H](O)[C@H](O)[C@H]3O)OC=C(C(=O)O)[C@H]2C[C@@H]1O | inconclusive: 29.1 µM [falling, single point]
13 | CC(C)n1cnc2c(NCc3ccccc3)nc(NCc3ccccc3)nc21 | inactive
14 | Cc1cc2c(cc1C)-c1c(ssc1=Nc1ccc(S(N)(=O)=O)cc1)C(C)(C)N2 | inconclusive: 4.61 µM [falling, full curve]
15 | Cc1ccc(OCc2ccc(C(=O)Nc3ccc(C(N)=O)cc3)o2)c([N+](=O)[O-])c1 | inconclusive: 2.06 µM [falling, partial curve]
16 | COC(=O)c1cc(C)sc1NC(=O)CCCC(=O)O | inconclusive: 0.0731 µM [falling, full curve, poor fit]
17 | COc1ccc(C2c3c(n(C)c4ccccc34)C(=O)N2CC(=O)Nc2c(C)cc(C)cc2C)cc1 (stereo unspecified) | inactive
18 | COc1cccc(C(=O)NCc2ccc3c(c2)OCO3)c1 | inconclusive: 23.1 µM [activator, partial curve, poor fit]
19 | Cc1nn(-c2ccc(F)cc2)c(Cl)c1/C=C/C(=O)OCC(=O)Nc1ccc(F)cc1F | inconclusive: 29.1 µM [falling, single point]
20 | CC(C)Cn1cc(NC(=O)NCc2ccc(Cl)cc2)c2ccccc2c1=O | inactive
21 | O=C1c2cccc3cccc(c23)C(=O)N1c1ccccc1Cl | inconclusive: 11.6 µM [falling, partial curve, poor fit]
22 | O=C(O)c1cccc(N2C(=O)c3cc([N+](=O)[O-])cc4cc([N+](=O)[O-])cc(c34)C2=O)c1 | inconclusive: 20.6 µM [falling, single point]

Row | Compound | Potency
23 | COc1ccc(-c2nn(CC(=O)NCCc3ccccc3)c(=S)n2C)cc1 | inconclusive: 29.1 µM [falling, single point]
24 | CCOc1ccccc1CNC(=O)C(CC)n1nc(C)c2c(C)n(-c3ccccc3)nc2c1=O (stereo unspecified) | inconclusive: 10.3 µM [falling, partial curve]
25 | O=C(CN1CCN(c2ccccc2O)CC1)NC(=O)NCc1ccccc1 | inconclusive: 32.6 µM [falling, partial curve, poor fit]
26 | O=C(CCCOc1ccc(Cl)cc1Cl)Nc1cccnc1 | inconclusive: 18.4 µM [falling, partial curve, poor fit]
27 | COc1ccc(CCN2C(=O)C=CC2=O)cc1OC | inconclusive: 29.1 µM [falling, single point]
28 | C(=NN1CCCCCC1)c1ccc2c(c1)OCO2 | inconclusive: 5.8 µM [activator, partial curve]
29 | Cc1ccc(NC(=O)CC2SCCNC2=O)cc1Cl (stereo unspecified) | inconclusive: 2.59 µM [activator, full curve, poor fit]
30 | COc1ccc(CC(=O)c2ccccc2C(=O)O)cc1 | inconclusive: 7.31 µM [activator, partial curve, poor fit]
31 | Cc1cc(-c2nn3c(C)nnc3s2)ccc1NC(=O)C(C)(C)C | inconclusive: 0.82 µM [activator, full curve]
32 | CC1=C(CC[C@@H](C)CO)OC2CC3C4CCC5CC(O)CCC5(C)C4CC(=O)C3(C)C12 (stereo partly specified) | inconclusive: 18.4 µM [falling, single point]
33 | COc1ccc(C2C3=C(COC3=O)Oc3cc4c(cc32)OCO4)cc1OC (stereo unspecified) | inconclusive: 29.1 µM [activator, single point]
34 | CCOc1ccc(Cc2n[nH]c(=S)n2N)cc1 | inactive
35 | Cc1nn(-c2ccccc2)c(C)c1NS(=O)(=O)c1ccccc1 | inconclusive: 32.6 µM [falling, single point]
36 | CCOC(=O)c1ccc(N2C(=O)c3[nH]nc(-c4ccc(C)cc4)c3C2c2ccc(O)cc2)cc1 (stereo unspecified) | active: 20.6 µM
37 | CCN(CC)C(=O)Nc1cnc2ccccc2c1 | inconclusive: 5.17 µM [activator, full curve, poor fit]
38 | c1ccc(N2CCN(c3c4c(nc5ncnn35)CCC4)CC2)cc1 | active: 11.6 µM
39 | COc1cccc(/C=C/C(=O)OCC(=O)N2CCCC2)c1OC | inconclusive: 29.1 µM [activator, single point]
40 | CCN(C(=O)CN1C(=O)S/C(=C\c2cccc(Cl)c2)C1=O)C1CCS(=O)(=O)C1 (stereo unspecified) | inactive
41 | Cc1c(C(=O)N(Cc2ccccc2)Cc2cccs2)cnn1-c1ccc(Cl)cc1 | inconclusive: 29.1 µM [falling, single point]
42 | CCNc1ccc(Br)cc(C(=O)/C=C/c2ccc(Cl)cc2Cl)c1=O | active: 25.9 µM
43 | CC(=O)N1CCC2(CC1)OC(=O)C(C)=C2C(=O)NCc1ccccc1Cl | inconclusive: 6.51 µM [activator, full curve]
44 | CC(=O)OC1=C(C(C)=O)N(Cc2ccccc2)S(=O)(=O)c2ccccc21 | inactive

Row | Compound | Potency
45 | Cn1c(C(=O)OC(C(=O)NC2CCCC2)c2ccncc2)cc2sccc21 (stereo unspecified) | inconclusive: 23.1 µM [falling, partial curve, poor fit]
46 | Cc1cc(NC(=O)c2ccc(F)cc2)ccc1-c1cc2ccccc2oc1=O | inconclusive: 1.84 µM [falling, partial curve, poor fit]
47 | COc1cc(SC)ccc1C(=O)Nc1ccncc1 | inconclusive: 3.26 µM [falling, partial curve, poor fit]
48 | Cc1noc(C)c1C(=O)Nc1ccccc1N1CCOCC1 | inactive
49 | Cc1cccc(OCCCC(=O)Nc2ccc(N(C)C)cc2)c1 | inconclusive: 5.17 µM [activator, full curve, poor fit]
50 | CC(C)(C)NC(=S)NCC1CC1 | inconclusive: 5.17 µM [falling, full curve, poor fit]
51 | O=C1C=C(c2ccc3c(c2)oc2ccccc23)C[C@@H](c2ccc3c(c2)OCO3)C1 | inactive
52 | Cc1cc(C)cc(NC(=O)C2CCCN(c3nccc(C)n3)C2)c1 (stereo unspecified) | inconclusive: 29.1 µM [falling, single point]
53 | CCc1ccc(-n2nc(CO)c(C(=O)NC(C)c3ccc(Cl)cc3)n2)cc1 (stereo unspecified) | inactive
54 | CCOC(=O)c1c(N)nn(C(=O)c2ccccc2)c1-c1ccccc1 | inconclusive: 23.1 µM [falling, single point]
55 | Cc1ccc(N(CC(=O)NC(C)c2ccccc2)S(=O)(=O)c2c(C)n[nH]c2C)cc1 (stereo unspecified) | inconclusive: 1.03 µM [activator, full curve]
56 | CC(C)Oc1ccc(C(=O)Nc2c3c(nn2C(C)(C)C)CS(=O)(=O)C3)cc1 | inactive
57 | CCc1ccc([C@@H]2CC=C(C(=O)O)[C@H](c3ccc(Cl)cc3)N2S(=O)(=O)c2ccc(C)cc2)cc1 | inconclusive: 14.6 µM [falling, partial curve]
58 | Cc1ccc(C)c(OCc2cc(C(=O)N3CC[C@@H]4CCCC[C@H]4C3)no2)c1 | inconclusive: 13 µM [activator, partial curve]
59 | CCN(CC)c1ccc(C(=C2C=CC(=[N+](CC)CC)C=C2)c2ccccc2)cc1 | active: 1.3 µM
60 | COc1ccc(/C=C2\CCC(C3CCCC3)C2=O)cc1OC (stereo unspecified) | inconclusive: 2.31 µM [activator, partial curve, poor fit]
61 | Nn1c(-c2cccs2)nc2sc3c(c2c1=O)CCCC3 | inconclusive: 5.17 µM [activator, partial curve]
62 | CN(C)S(=O)(=O)c1cccc(NC(=O)c2c[nH]c3ccccc23)c1 | inconclusive: 25.9 µM [activator, partial curve]
63 | COc1cccc(CN(CC(=O)NC2CCCC2)C(=O)Cn2nnc(-c3cccs3)n2)c1 | inconclusive: 2.06 µM [falling, partial curve, poor fit]
64 | Cc1ccccc1NC(=O)COc1cccc2c1CCNC2=O | inconclusive: 8.2 µM [falling, partial curve, poor fit]
65 | Cc1ccc(OCC(=O)NCc2n[nH]c(=O)c3ccccc23)cc1 | inconclusive: 8.2 µM [falling, partial curve, poor fit]
66 | O=c1oc2ccccc2c(O)c1C=Nc1cccnc1 | inconclusive: 32.6 µM [falling, partial curve, poor fit]

Sorted by count of non-hydrogen atoms (falling): 3 of the compounds above.
Row | Compound | Potency
56 | CC(C)Oc1ccc(C(=O)Nc2c3c(nn2C(C)(C)C)CS(=O)(=O)C3)cc1 | inactive
48 | Cc1noc(C)c1C(=O)Nc1ccccc1N1CCOCC1 | inactive
47 | COc1cc(SC)ccc1C(=O)Nc1ccncc1 | inconclusive: 3.26 µM [falling, partial curve, poor fit]

A different layout for part of the listing above.

| Row | Compound | Potency |
| --- | --- | --- |
| 62 | CN(C)S(=O)(=O)c1cccc(NC(=O)c2c[nH]c3ccccc23)c1 | inconclusive: 25.9 µM [activator, partial curve] |
| 63 | COc1cccc(CN(CC(=O)NC2CCCC2)C(=O)Cn2nnc(-c3cccs3)n2)c1 | inconclusive: 2.06 µM [falling, partial curve, poor fit] |
| 64 | Cc1ccccc1NC(=O)COc1cccc2c1CCNC2=O | inconclusive: 8.2 µM [falling, partial curve, poor fit] |
